# Results published in paper PMC7866390, “A Novel Multiprotein Bridging Factor 1-Like Protein Induces Cyst Wall Protein Gene Expression and Cyst Differentiation in Giardia lamblia”.
# Sequences of proteins named here, by UniProt entry; tags and fusion partners are left off. A change or cut given only in a name is not applied to a line headed by its entry.
# UniProt Q86R88: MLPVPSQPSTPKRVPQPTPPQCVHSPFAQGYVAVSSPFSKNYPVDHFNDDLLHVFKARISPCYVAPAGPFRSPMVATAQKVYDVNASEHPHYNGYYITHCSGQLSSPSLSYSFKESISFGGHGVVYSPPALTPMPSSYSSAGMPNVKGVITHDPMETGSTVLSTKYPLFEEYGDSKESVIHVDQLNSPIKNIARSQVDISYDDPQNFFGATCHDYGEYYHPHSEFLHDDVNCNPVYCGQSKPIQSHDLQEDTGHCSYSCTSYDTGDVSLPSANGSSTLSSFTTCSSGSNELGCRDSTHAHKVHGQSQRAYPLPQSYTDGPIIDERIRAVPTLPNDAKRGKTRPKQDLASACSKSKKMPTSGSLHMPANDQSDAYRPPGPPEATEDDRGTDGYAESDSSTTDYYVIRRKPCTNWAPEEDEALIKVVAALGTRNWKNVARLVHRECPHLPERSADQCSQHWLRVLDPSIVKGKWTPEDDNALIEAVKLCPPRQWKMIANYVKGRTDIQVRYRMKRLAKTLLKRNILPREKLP
# UniProt A8BZ03: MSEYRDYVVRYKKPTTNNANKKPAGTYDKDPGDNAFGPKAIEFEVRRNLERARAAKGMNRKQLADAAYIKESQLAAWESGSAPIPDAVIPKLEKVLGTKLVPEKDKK
# Columns and labels:
# [1] = molecular target: Giardia lamblia Myb2 transcription factor, endogenous (Giardia lamblia (endogenous in WB clone C6)) (UniProt Q86R88); test: co-IP; reciprocal immunoprecipitation: lysates of stable transfectants cultured in encystation medium for 24 h; 2 μg anti-MBF1 antibody (anti-Myb2 for the Myb2 pair) or preimmune serum for 2 h, then protein G plus/protein A-agarose for 1 h; Western blot with anti-HA
# [2] = molecular target: HA-tagged MBF1 protein of Giardia lamblia (Giardia lamblia) (UniProt A8BZ03); test: co-IP; lysates of stable transfectants cultured in encystation medium for 24 h; anti-HA antibody conjugated to beads; Western blot with anti-HA, anti-MBF1 or anti-Myb2, and anti-ISCS; control cell line 5'Δ5N-Pac
binding [1],binding [2],Substance
binds,,HA-tagged MBF1 protein of Giardia lamblia (from UniProt A8BZ03)
,binds,"Giardia lamblia Myb2 transcription factor, endogenous (from UniProt Q86R88)"

# These are yes or no findings as the source states them, for the method shown. In cells and extracts the contact can be indirect. Binding can be weak; no strength is given.
